The target in this assay is T1, V5-tagged IFNAR2 cytosolic domain (aa 265-515) (UniProt P48551).
T1 sequence: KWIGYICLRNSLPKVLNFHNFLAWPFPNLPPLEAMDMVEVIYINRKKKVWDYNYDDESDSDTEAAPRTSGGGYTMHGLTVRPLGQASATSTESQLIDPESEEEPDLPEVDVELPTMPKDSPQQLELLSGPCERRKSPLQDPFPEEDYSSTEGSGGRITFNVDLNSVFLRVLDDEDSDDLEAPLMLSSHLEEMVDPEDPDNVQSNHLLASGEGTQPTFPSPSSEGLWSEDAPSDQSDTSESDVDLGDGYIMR
Nature of the assay: co-IP; HEK293T co-transfected with IFNAR2.CTD-V5, STAT2-Myc and Flag-tagged USP18 (wt, I60N or C64S); lysed 48 h after transfection; anti-V5 antibody on protein G Dynabeads; blot for V5, STAT2 and USP18.

By UniProt entry, the sequences of proteins in these tests, tags left out.
UniProt P52630: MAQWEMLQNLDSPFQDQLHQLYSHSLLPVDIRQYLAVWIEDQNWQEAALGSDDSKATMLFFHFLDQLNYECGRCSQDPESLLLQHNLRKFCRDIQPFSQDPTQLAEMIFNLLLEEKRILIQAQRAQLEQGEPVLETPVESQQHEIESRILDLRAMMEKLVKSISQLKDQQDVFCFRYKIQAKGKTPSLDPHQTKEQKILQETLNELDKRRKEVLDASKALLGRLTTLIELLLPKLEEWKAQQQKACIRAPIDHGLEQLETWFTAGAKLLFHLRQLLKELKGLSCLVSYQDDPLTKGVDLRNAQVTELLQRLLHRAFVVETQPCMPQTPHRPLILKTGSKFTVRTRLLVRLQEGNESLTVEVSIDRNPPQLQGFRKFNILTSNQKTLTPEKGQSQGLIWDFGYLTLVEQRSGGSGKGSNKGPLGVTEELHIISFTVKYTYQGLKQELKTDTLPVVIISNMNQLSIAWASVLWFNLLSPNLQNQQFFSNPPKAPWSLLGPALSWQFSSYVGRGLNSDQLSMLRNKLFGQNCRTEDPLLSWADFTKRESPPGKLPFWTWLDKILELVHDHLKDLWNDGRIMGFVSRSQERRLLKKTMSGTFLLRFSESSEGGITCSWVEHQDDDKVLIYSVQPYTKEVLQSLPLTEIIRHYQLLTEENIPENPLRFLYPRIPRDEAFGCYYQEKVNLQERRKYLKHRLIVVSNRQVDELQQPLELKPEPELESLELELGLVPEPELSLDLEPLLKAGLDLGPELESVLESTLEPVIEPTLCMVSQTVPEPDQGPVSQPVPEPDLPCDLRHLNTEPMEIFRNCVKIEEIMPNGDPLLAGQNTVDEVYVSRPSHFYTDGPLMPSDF

No constants are given. Whether binding was seen depends on the method and setting. Binding seen in cells or lysates may run through a third protein. Some results given as binding are weak or reduced against the parent protein; the word gives no strength. Sequences can lack the tags named with a protein.

As to “Myc-tagged STAT2 (from UniProt P52630 1-851)”, the binding entry was “binds”.

B1: USP18.I60N-3XFlag (enzyme, UniProt Q9UMW8-1 1-372)
chain: MSKAFGLLRQICQSILAESSQSPADLEEKKEEDSNMKREQPRERPRAWDYPHGLVGLHNNGQTCCLNSLIQVFVMNVDFTRILKRITVPRGADEQRRSVPFQMLLLLEKMQDSRQKAVRPLELAYCLQKCNVPLFVQHDAAQLYLKLWNLIKDQITDVHLVERLQALYTIRVKDSLICVDCAMESSRNSSMLTLPLSLFDVDSKPLKTLEDALHCFFQPRELSSKSKCFCENCGKKTRGKQVLKLTHLPQTLTIHLMRFSIRNSQTRKICHSLYFPQSLDFSQILPMKRESCDAEEQSGGQYELFAVIAHVGMADSGHYCVYIRNAVDGKWFCFNDSNICLVSWEDIQCTYGNPNYHWQETAYLLVYMKMEC
In the case of B1, the binding entry is “binds”.

B2: USP18.C64S-3XFlag (enzyme, UniProt Q9UMW8-1 1-372)
chain: MSKAFGLLRQICQSILAESSQSPADLEEKKEEDSNMKREQPRERPRAWDYPHGLVGLHNIGQTSCLNSLIQVFVMNVDFTRILKRITVPRGADEQRRSVPFQMLLLLEKMQDSRQKAVRPLELAYCLQKCNVPLFVQHDAAQLYLKLWNLIKDQITDVHLVERLQALYTIRVKDSLICVDCAMESSRNSSMLTLPLSLFDVDSKPLKTLEDALHCFFQPRELSSKSKCFCENCGKKTRGKQVLKLTHLPQTLTIHLMRFSIRNSQTRKICHSLYFPQSLDFSQILPMKRESCDAEEQSGGQYELFAVIAHVGMADSGHYCVYIRNAVDGKWFCFNDSNICLVSWEDIQCTYGNPNYHWQETAYLLVYMKMEC
On to B2, for which the binding entry is on record as “binds”.

B3: USP18.wt-3XFlag (enzyme, UniProt Q9UMW8-1 1-372)
chain: MSKAFGLLRQICQSILAESSQSPADLEEKKEEDSNMKREQPRERPRAWDYPHGLVGLHNIGQTCCLNSLIQVFVMNVDFTRILKRITVPRGADEQRRSVPFQMLLLLEKMQDSRQKAVRPLELAYCLQKCNVPLFVQHDAAQLYLKLWNLIKDQITDVHLVERLQALYTIRVKDSLICVDCAMESSRNSSMLTLPLSLFDVDSKPLKTLEDALHCFFQPRELSSKSKCFCENCGKKTRGKQVLKLTHLPQTLTIHLMRFSIRNSQTRKICHSLYFPQSLDFSQILPMKRESCDAEEQSGGQYELFAVIAHVGMADSGHYCVYIRNAVDGKWFCFNDSNICLVSWEDIQCTYGNPNYHWQETAYLLVYMKMEC
Turning to B3, the binding entry is reported as “binds”.

Values taken from publication PMC11811815.
